From the supplement of paper PMC10849652
The other results are listed elsewhere or left out.

Sequences of proteins named here, by UniProt entry; tags and fusion partners are left off. A change or cut given only in a name is not applied to a line headed by its entry.
UniProt Q86W56: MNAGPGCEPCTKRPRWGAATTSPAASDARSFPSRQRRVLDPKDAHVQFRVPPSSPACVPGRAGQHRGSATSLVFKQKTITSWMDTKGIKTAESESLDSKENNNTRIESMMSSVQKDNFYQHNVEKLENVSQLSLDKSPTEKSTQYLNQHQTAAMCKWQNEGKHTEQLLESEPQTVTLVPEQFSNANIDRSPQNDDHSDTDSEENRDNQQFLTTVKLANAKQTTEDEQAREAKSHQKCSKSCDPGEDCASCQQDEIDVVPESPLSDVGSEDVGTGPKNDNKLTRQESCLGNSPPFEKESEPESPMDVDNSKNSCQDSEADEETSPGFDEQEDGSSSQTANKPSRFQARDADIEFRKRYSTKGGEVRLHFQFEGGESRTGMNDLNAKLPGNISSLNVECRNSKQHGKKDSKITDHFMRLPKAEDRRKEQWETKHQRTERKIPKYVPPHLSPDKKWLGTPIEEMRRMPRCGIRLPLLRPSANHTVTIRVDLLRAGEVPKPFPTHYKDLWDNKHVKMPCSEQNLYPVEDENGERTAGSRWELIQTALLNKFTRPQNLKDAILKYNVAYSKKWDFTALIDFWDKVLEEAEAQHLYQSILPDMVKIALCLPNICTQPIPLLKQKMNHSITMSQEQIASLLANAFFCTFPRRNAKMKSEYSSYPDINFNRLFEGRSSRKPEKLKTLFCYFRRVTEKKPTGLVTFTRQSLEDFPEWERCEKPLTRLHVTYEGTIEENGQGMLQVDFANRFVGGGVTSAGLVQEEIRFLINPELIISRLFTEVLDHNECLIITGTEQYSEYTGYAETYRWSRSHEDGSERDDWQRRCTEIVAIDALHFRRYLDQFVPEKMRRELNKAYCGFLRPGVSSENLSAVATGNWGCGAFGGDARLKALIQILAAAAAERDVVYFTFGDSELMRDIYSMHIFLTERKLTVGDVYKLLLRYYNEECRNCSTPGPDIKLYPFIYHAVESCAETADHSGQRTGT
UniProt Q9NPF4: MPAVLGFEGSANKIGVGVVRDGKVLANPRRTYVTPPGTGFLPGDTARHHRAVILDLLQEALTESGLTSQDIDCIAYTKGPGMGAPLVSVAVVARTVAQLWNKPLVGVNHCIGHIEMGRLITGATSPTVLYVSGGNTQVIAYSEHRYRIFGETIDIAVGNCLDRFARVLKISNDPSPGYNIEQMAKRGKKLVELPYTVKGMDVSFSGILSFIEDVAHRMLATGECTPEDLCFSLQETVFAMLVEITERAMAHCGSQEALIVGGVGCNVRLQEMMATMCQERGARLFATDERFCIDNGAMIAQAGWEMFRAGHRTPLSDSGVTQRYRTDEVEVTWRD
UniProt O43482, whole entry, looked up: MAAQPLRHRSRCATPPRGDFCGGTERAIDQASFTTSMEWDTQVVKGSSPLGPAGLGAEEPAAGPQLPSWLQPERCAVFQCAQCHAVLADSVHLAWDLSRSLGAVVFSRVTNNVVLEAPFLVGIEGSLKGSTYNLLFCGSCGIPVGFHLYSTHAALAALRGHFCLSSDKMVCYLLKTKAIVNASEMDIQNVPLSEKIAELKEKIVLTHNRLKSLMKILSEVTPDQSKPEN
UniProt Q13153, whole entry, looked up: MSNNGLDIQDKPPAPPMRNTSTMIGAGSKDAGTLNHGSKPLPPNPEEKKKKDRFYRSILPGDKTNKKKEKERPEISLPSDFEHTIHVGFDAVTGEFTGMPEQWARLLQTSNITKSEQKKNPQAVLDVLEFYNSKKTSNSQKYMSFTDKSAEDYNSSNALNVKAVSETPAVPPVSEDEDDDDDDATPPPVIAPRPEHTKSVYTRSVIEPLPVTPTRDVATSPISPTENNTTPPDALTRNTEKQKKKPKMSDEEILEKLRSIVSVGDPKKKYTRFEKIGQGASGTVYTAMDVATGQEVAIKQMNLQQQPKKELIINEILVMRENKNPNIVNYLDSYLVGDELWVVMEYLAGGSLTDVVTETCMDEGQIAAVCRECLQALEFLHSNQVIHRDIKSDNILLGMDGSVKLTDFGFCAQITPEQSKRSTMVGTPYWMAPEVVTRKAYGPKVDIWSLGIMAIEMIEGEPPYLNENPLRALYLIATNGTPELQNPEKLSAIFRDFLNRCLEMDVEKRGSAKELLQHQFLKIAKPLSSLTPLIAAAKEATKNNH
UniProt Q8TE04: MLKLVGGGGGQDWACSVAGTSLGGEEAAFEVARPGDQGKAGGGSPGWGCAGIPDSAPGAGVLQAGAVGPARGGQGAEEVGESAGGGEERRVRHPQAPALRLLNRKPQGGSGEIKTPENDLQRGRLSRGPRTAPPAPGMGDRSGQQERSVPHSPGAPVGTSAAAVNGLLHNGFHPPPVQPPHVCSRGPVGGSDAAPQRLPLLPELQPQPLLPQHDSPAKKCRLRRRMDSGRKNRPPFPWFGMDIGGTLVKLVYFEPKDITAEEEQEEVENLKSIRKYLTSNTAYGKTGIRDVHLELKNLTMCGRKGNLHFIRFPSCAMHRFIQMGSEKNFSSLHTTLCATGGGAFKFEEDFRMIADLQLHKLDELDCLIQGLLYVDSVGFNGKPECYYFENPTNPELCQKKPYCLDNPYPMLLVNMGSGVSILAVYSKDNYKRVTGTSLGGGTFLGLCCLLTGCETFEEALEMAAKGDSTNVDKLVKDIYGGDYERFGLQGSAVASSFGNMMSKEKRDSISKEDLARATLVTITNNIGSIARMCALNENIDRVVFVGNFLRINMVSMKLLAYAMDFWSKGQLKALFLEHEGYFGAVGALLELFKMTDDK
UniProt O15504: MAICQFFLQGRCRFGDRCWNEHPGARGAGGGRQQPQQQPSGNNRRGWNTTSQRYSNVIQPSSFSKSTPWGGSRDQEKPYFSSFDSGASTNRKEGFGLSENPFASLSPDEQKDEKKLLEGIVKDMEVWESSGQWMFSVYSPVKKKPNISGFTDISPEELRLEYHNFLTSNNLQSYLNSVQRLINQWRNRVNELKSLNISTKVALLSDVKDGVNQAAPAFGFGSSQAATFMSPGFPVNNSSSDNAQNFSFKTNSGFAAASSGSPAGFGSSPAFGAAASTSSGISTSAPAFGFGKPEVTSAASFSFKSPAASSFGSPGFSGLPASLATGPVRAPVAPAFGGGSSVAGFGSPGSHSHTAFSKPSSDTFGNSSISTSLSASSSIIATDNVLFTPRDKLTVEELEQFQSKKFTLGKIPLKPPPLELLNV
UniProt O43929: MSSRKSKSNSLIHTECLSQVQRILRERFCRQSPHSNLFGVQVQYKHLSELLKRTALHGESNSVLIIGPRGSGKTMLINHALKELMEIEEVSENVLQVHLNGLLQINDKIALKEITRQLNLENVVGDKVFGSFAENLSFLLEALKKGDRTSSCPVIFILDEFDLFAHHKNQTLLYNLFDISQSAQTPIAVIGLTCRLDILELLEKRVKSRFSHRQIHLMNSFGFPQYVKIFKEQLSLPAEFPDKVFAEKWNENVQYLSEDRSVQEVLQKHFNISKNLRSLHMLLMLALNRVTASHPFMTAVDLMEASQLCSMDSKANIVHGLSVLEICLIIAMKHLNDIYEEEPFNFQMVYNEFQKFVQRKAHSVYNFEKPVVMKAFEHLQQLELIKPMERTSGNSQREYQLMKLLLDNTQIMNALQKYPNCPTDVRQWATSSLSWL
UniProt Q12769: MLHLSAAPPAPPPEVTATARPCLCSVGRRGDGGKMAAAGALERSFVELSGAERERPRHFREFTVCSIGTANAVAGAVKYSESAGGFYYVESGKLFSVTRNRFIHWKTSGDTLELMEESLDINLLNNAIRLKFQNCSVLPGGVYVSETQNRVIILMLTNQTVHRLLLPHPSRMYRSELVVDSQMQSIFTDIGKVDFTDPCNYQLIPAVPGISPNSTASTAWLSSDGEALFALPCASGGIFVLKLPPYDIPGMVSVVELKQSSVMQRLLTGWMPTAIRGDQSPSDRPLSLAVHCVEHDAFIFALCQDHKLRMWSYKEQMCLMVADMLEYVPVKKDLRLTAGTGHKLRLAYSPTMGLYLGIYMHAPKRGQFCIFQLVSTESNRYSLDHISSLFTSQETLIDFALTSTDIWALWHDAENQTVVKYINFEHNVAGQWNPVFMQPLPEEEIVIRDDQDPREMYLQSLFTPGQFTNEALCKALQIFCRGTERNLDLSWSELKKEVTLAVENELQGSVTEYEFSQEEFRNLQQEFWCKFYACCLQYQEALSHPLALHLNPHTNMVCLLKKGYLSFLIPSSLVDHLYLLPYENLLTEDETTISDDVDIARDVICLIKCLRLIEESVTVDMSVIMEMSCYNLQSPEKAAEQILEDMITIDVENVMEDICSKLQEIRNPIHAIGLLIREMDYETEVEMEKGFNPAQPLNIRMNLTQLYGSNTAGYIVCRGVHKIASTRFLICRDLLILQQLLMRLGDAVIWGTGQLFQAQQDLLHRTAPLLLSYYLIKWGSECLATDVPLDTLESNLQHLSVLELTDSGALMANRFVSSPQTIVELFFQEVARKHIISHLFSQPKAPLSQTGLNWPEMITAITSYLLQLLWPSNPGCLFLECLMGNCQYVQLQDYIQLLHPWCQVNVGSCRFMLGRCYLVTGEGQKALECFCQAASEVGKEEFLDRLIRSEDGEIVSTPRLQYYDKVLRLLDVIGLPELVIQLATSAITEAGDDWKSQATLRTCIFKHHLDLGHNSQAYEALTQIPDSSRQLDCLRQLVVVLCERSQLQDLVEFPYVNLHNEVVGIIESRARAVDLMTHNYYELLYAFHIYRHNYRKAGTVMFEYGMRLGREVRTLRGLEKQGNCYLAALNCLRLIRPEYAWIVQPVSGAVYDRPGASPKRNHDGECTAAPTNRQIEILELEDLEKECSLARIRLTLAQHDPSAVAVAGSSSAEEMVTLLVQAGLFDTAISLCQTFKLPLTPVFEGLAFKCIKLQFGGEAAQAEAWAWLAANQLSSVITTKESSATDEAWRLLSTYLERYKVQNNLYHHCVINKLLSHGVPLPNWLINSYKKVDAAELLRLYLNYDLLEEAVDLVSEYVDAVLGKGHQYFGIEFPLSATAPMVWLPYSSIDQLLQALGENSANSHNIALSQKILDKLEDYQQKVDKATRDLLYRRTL
UniProt Q8N543: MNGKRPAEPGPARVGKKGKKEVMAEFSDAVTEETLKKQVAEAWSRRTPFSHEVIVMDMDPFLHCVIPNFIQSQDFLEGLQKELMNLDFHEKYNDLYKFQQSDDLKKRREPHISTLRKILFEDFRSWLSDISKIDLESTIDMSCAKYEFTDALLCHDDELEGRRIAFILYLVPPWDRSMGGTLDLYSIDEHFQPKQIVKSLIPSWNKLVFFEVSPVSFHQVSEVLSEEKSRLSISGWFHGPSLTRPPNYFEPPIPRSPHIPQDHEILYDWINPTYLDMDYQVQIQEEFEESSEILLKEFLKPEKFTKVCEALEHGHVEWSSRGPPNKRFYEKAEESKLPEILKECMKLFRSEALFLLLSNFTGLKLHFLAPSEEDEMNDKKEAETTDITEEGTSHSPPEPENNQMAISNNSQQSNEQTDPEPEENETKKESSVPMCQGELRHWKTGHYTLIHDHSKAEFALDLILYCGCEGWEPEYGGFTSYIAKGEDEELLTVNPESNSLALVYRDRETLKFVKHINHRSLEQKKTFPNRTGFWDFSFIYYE
UniProt P61970, whole entry, looked up: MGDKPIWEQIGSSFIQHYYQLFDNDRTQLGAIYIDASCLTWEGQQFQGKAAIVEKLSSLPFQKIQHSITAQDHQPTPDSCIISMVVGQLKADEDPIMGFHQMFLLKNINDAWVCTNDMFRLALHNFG
UniProt Q8WZ82: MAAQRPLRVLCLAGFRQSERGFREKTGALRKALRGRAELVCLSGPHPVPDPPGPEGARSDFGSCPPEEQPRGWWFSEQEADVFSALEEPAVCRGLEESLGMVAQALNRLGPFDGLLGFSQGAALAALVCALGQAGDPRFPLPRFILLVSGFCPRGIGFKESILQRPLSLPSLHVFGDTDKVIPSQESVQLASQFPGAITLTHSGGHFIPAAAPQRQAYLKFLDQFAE
UniProt Q9UBD5: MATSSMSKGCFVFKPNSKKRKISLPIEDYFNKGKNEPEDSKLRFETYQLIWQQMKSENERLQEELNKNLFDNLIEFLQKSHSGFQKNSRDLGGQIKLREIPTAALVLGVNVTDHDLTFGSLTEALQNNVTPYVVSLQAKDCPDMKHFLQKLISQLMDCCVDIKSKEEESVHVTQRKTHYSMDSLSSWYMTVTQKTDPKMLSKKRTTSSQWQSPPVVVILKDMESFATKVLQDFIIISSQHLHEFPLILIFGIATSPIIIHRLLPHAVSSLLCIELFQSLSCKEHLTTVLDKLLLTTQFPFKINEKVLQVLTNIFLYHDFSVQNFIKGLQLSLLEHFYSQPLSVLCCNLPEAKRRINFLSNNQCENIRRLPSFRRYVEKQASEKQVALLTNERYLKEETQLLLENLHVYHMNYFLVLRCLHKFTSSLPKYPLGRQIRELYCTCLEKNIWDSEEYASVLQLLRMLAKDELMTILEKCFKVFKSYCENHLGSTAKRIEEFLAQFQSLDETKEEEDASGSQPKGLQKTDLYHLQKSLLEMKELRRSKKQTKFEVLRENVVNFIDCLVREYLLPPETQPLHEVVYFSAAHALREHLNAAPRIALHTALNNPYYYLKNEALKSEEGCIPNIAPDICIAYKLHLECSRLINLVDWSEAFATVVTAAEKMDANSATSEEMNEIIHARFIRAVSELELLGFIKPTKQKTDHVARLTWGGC

Key:
Assay in all cases: log2 fold change, soluble protein after heating vs DMSO (PISA); higher = thermal stabilisation; K562 lysate, 10 uM; active = over 0.2 and 3.5 SD of the protein, either way, in both replicates (recomputed)
vemurafenib = compound: CCCS(=O)(=O)Nc1ccc(F)c(C(=O)c2c[nH]c3ncc(-c4ccc(Cl)cc4)cc23)c1F [vemurafenib]
How it was run: (§1)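 Dounce homogenisation of K562 pellets in PBS pH 7.4 with 1 mM MgCl2 produced a crude extract, used at 1 mg/mL protein. Exposure to 10 μM compound lasted 30 min, and aliquots were then heated for 3 min across 48°C-58°C, pooled and brought to 0.5% NP-40 at 4°C. The supernatant after 21,000xg for 90 min was quantified by TMTpro 16plex LC-MS/MS with channel sums equalised. Duplicate values are given as log-two fold change in thermal stability relative to solvent controls.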

[1] = compound: CCCS(=O)(=O)Nc1ccc(F)c(C(=O)c2c[nH]c3ncc(Cl)cc23)c1F
How it was run: as §1

barasertib = compound: CCN(CCCOc1ccc2c(Nc3cc(CC(=O)Nc4cccc(F)c4)[nH]n3)ncnc2c1)CCOP(=O)(O)O [barasertib]
How it was run: as §1

[2] = compound: CC[C@@H]1C(=O)N(C)c2cnc(Nc3ccc(C(=O)NC4CCN(C)CC4)cc3OC)nc2N1C1CCCC1
How it was run: as §1

volasertib = compound: CC[C@@H]1C(=O)N(C)c2cnc(Nc3ccc(C(=O)N[C@H]4CC[C@H](N5CCN(CC6CC6)CC5)CC4)cc3OC)nc2N1C(C)C [volasertib]
How it was run: as §1

[3] = compound: CCn1c(C(=O)N(C2CC2)C2CC2)cc2c3c(ncn3C)c(Nc3cc(C)n(C)n3)nc21
How it was run: as §1

[4] = compound: CCn1cc(-c2ccnc3[nH]c(-c4cccc(CN(C)C)c4)cc23)c(-c2ccc(NC(=O)N(C)C)cc2)n1
How it was run: as §1

[5] = compound: CN1CCC(CNc2ccc3ncc(-c4cccc(OC(F)(F)F)c4)n3n2)CC1
How it was run: as §1

saracatinib = compound: CN1CCN(CCOc2cc(OC3CCOCC3)c3c(Nc4c(Cl)ccc5c4OCO5)ncnc3c2)CC1 [saracatinib]
How it was run: as §1

sotrastaurin = compound: CN1CCN(c2nc(C3=C(c4c[nH]c5ccccc45)C(=O)NC3=O)c3ccccc3n2)CC1 [sotrastaurin]
How it was run: as §1

alvocidib = compound: CN1CC[C@H](c2c(O)cc(O)c3c(=O)cc(-c4ccccc4Cl)oc23)[C@H](O)C1 [alvocidib]
How it was run: as §1

Tubastatin A = compound: CN1CCc2c(c3ccccc3n2Cc2ccc(C(=O)NO)cc2)C1 [Tubastatin A]
How it was run: as §1

[6] = compound: CNC(=O)C1=CC=CC=C1NC2=NC(=NC=C2Cl)NC3=C(C=C(C=C3)N4CCOCC4)OC
How it was run: as §1

defactinib = compound: CNC(=O)c1ccc(Nc2ncc(C(F)(F)F)c(NCc3nccnc3N(C)S(C)(=O)=O)n2)cc1 [defactinib]
How it was run: as §1

[7] = compound: CNc1nc(-c2ccc3c(N)n[nH]c3c2)cc(N2C[C@@H](C(=O)NC3CCCCC3)CC[C@H]2C)n1
How it was run: as §1

encorafenib = compound: COC(=O)N[C@@H](C)CNc1nccc(-c2cn(C(C)C)nc2-c2cc(Cl)cc(NS(C)(=O)=O)c2F)n1 [encorafenib]
How it was run: as §1

[8] = compound: COC(=O)[C@H](CCSC)NC(=O)C1=C(C=C(C=C1)NC[C@H](CS)N)C2=CC=CC=C2
How it was run: as §1

alisertib = compound: COc1cc(Nc2ncc3c(n2)-c2ccc(Cl)cc2C(c2c(F)cccc2OC)=NC3)ccc1C(=O)O [alisertib]
How it was run: as §1

[9] = compound: COc1cc2nc(-c3cc(F)ccc3O)nc(N[C@@H]3CNC[C@H]3C(C)(C)O)c2cc1OC
How it was run: as §1

gefitinib = compound: COc1cc2ncnc(Nc3ccc(F)c(Cl)c3)c2cc1OCCCN1CCOCC1 [gefitinib]
How it was run: as §1

Measured: log2 fold change

PARG (UniProt Q86W56)
inactive: vemurafenib 0.028 | [1] 0.033 | barasertib 0.008 | [2] -0.027 | volasertib -0.018 | [3] -0.015 | [4] 0.065 | [5] -0.032 | saracatinib 0.006 | sotrastaurin 0.02 | alvocidib 0.03 | Tubastatin A -0.055 | [6] 0.029 | defactinib 0.041 | [7] -0.016 | encorafenib 0.027 | [8] 0.042 | alisertib 0 | [9] 0.01 | gefitinib 0.046

OSGEP (UniProt Q9NPF4)
inactive: vemurafenib 0.003 | [1] 0.026 | barasertib 0.031 | [2] -0.059 | volasertib -0.037 | [3] -0.03 | [4] -0.065 | [5] 0.026 | saracatinib -0.006 | sotrastaurin -0.008 | alvocidib -0.062 | Tubastatin A 0 | [6] -0.047 | defactinib 0 | [7] 0.03 | encorafenib -0.008 | [8] 0.016 | alisertib 0.045 | [9] 0.007 | gefitinib -0.032

OIP5 (UniProt O43482)
inactive: vemurafenib -0.038 | [1] 0.002 | barasertib -0.051 | [2] 0.022 | volasertib 0.045 | [3] -0.035 | [4] -0.084 | [5] 0.051 | saracatinib -0.024 | sotrastaurin 0.101 | alvocidib -0.041 | Tubastatin A 0.026 | [6] 0.016 | defactinib 0.016 | [7] 0.069 | encorafenib 0.018 | [8] -0.028 | alisertib -0.043 | [9] 0.011 | gefitinib 0.009

PAK1 (UniProt Q13153)
inactive: vemurafenib -0.013 | [1] 0.001 | barasertib -0.001 | [2] -0.002 | volasertib 0.023 | [3] -0.011 | [4] 0.013 | [5] 0.06 | saracatinib 0 | sotrastaurin -0.054 | alvocidib -0.023 | Tubastatin A 0.026 | [6] 0.011 | defactinib -0.006 | [7] 0.044 | encorafenib -0.012 | [8] 0.023 | alisertib 0.016 | [9] 0.02 | gefitinib -0.06

OBSL1 (UniProt O75147)
inactive: vemurafenib 0.021 | [1] -0.033 | barasertib 0.065 | [2] -0.013 | volasertib 0.094 | [3] -0.008 | [4] -0.017 | [5] 0.016 | saracatinib -0.02 | sotrastaurin -0.019 | alvocidib -0.005 | Tubastatin A -0.034 | [6] 0.054 | defactinib 0.057 | [7] 0.054 | encorafenib 0.017 | [8] 0.063 | alisertib 0.129 | [9] 0.144 | gefitinib -0.061

PANK1 (UniProt Q8TE04)
inactive: vemurafenib 0.086 | [1] 0.036 | barasertib 0.097 | [2] -0.231 | volasertib -0.063 | [3] 0.056 | [4] 0.226 | [5] -0.253 | saracatinib 0 | sotrastaurin 0.052 | alvocidib 0.002 | Tubastatin A 0.025 | [6] 0.051 | defactinib -0.082 | [7] -0.076 | encorafenib 0.312 | [8] 0.173 | alisertib 0.001 | [9] -0.096 | gefitinib 0.072

NUP42 (UniProt O15504)
inactive: vemurafenib 0.087 | [1] 0.027 | barasertib 0.024 | [2] 0.05 | volasertib -0.013 | [3] 0.019 | [4] 0.177 | [5] -0.122 | saracatinib -0.026 | sotrastaurin -0.021 | alvocidib 0.032 | Tubastatin A 0.05 | [6] -0.073 | defactinib 0.045 | [7] -0.025 | encorafenib -0.057 | [8] -0.065 | alisertib -0.014 | [9] -0.043 | gefitinib 0.041

ORC4 (UniProt O43929)
inactive: vemurafenib 0.098 | [1] -0.034 | barasertib 0.001 | [2] -0.026 | volasertib -0.041 | [3] 0.022 | [4] -0.046 | [5] -0.089 | saracatinib 0.018 | sotrastaurin -0.018 | alvocidib 0.033 | Tubastatin A -0.126 | [6] -0.014 | defactinib 0.061 | [7] 0.028 | encorafenib 0 | [8] 0.117 | alisertib 0.022 | [9] -0.022 | gefitinib -0.008

NUP160 (UniProt Q12769)
inactive: vemurafenib -0.039 | [1] 0.02 | barasertib 0.052 | [2] -0.106 | volasertib -0.105 | [3] 0.043 | [4] 0.057 | [5] -0.058 | saracatinib 0.043 | sotrastaurin -0.01 | alvocidib 0.029 | Tubastatin A -0.143 | [6] 0.045 | defactinib 0.004 | [7] -0.03 | encorafenib 0.059 | [8] -0.195 | alisertib 0.015 | [9] 0.004 | gefitinib 0.031

PAF1 (UniProt Q8N7H5)
inactive: vemurafenib 0.019 | [1] 0.031 | barasertib -0.001 | [2] -0.017 | volasertib -0.015 | [3] -0.023 | [4] -0.027 | [5] -0.011 | saracatinib 0.007 | sotrastaurin 0.005 | alvocidib 0.006 | Tubastatin A -0.034 | [6] 0.021 | defactinib 0.003 | [7] -0.011 | encorafenib -0.005 | [8] 0.033 | alisertib -0.02 | [9] 0.019 | gefitinib 0.007

ORC2 (UniProt Q13416)
inactive: vemurafenib 0.048 | [1] 0.007 | barasertib 0.003 | [2] -0.077 | volasertib -0.048 | [3] 0.002 | [4] -0.002 | [5] -0.085 | saracatinib 0.007 | sotrastaurin 0.049 | alvocidib 0.034 | Tubastatin A -0.161 | [6] 0.038 | defactinib 0.034 | [7] -0.008 | encorafenib 0.018 | [8] 0.094 | alisertib 0.012 | [9] -0.002 | gefitinib -0.011

OGFOD1 (UniProt Q8N543)
inactive: vemurafenib -0.01 | [1] 0.016 | barasertib 0.016 | [2] -0.034 | volasertib -0.03 | [3] -0.033 | [4] 0.003 | [5] 0.047 | saracatinib -0.002 | sotrastaurin -0.012 | alvocidib 0.01 | Tubastatin A 0.025 | [6] 0.016 | defactinib -0.017 | [7] -0.037 | encorafenib 0 | [8] 0.051 | alisertib 0 | [9] 0.028 | gefitinib 0.018

PABPC4 isoform 3 (UniProt Q13310)
inactive: vemurafenib 0.007 | [1] 0 | barasertib -0.005 | [2] 0.008 | volasertib 0.004 | [3] 0.014 | [4] 0.018 | [5] -0.03 | saracatinib -0.005 | sotrastaurin -0.008 | alvocidib 0.018 | Tubastatin A -0.024 | [6] -0.012 | defactinib -0.023 | [7] -0.03 | encorafenib -0.009 | [8] 0.006 | alisertib -0.001 | [9] 0.006 | gefitinib 0.001

NUTF2 (UniProt P61970)
inactive: vemurafenib -0.05 | [1] -0.014 | barasertib 0.097 | [2] 0.039 | volasertib 0.01 | [3] 0.025 | [4] -0.024 | [5] -0.043 | saracatinib -0.042 | sotrastaurin 0.008 | alvocidib 0.042 | Tubastatin A 0.034 | [6] 0.026 | defactinib 0.116 | [7] 0.008 | encorafenib 0.003 | [8] 0.033 | alisertib -0.001 | [9] -0.075 | gefitinib -0.09

Three consecutive entries out of the list so far:
PAF1 (UniProt Q8N7H5)
inactive: vemurafenib 0.019 | [1] 0.031 | barasertib -0.001 | [2] -0.017 | volasertib -0.015 | [3] -0.023 | [4] -0.027 | [5] -0.011 | saracatinib 0.007 | sotrastaurin 0.005 | alvocidib 0.006 | Tubastatin A -0.034 | [6] 0.021 | defactinib 0.003 | [7] -0.011 | encorafenib -0.005 | [8] 0.033 | alisertib -0.02 | [9] 0.019 | gefitinib 0.007

ORC2 (UniProt Q13416)
inactive: vemurafenib 0.048 | [1] 0.007 | barasertib 0.003 | [2] -0.077 | volasertib -0.048 | [3] 0.002 | [4] -0.002 | [5] -0.085 | saracatinib 0.007 | sotrastaurin 0.049 | alvocidib 0.034 | Tubastatin A -0.161 | [6] 0.038 | defactinib 0.034 | [7] -0.008 | encorafenib 0.018 | [8] 0.094 | alisertib 0.012 | [9] -0.002 | gefitinib -0.011

OGFOD1 (UniProt Q8N543)
inactive: vemurafenib -0.01 | [1] 0.016 | barasertib 0.016 | [2] -0.034 | volasertib -0.03 | [3] -0.033 | [4] 0.003 | [5] 0.047 | saracatinib -0.002 | sotrastaurin -0.012 | alvocidib 0.01 | Tubastatin A 0.025 | [6] 0.016 | defactinib -0.017 | [7] -0.037 | encorafenib 0 | [8] 0.051 | alisertib 0 | [9] 0.028 | gefitinib 0.018

Next part

OVCA2 (UniProt Q8WZ82)
inactive: vemurafenib -0.103 | [1] 0.023 | barasertib -0.047 | [2] -0.078 | volasertib -0.001 | [3] 0.027 | [4] -0.018 | [5] 0.083 | saracatinib 0.084 | sotrastaurin 0.1 | alvocidib -0.084 | Tubastatin A -0.045 | [6] -0.016 | defactinib 0.092 | [7] -0.065 | encorafenib -0.026 | [8] 0.031 | alisertib -0.023 | [9] -0.098 | gefitinib -0.24

ORC3 isoform 2 (UniProt Q9UBD5)
inactive: vemurafenib 0.016 | [1] -0.008 | barasertib 0.022 | [2] -0.036 | volasertib -0.059 | [3] -0.006 | [4] -0.063 | [5] -0.018 | saracatinib -0.001 | sotrastaurin 0.027 | alvocidib 0.006 | Tubastatin A -0.155 | [6] 0.007 | defactinib 0.022 | [7] 0.035 | encorafenib 0.02 | [8] 0.15 | alisertib 0.001 | [9] -0.009 | gefitinib -0.019
